Assay results: PubChem BioAssay AID434947 (Broad Institute, 2010)
About 15 (0.7%) of roughly 2,200 compounds were called active.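 Rule for the calls: active = fitted half-maximal concentration for loss of luminescence signal no more than a set limit of log units above the top tested concentration; inconclusive = flat fit with 30 to 70% signal loss, or invalid fit; inactive = half-maximal concentration above that set limit.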 Some of the results follow.

Assay: inhibitors of ADP-Glo detection reagents, dose response, artefact control for GSK3beta inhibitor project, biochemical, luminescence, cell-free, homogeneous (AID 434947);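 note: kinase-free counter screen of ADP-Glo detection reagents for GSK3beta hits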
Conditions: 5 uM ADP

EC50, inactive:
CCCCOc1ccc(/C=C/C(=O)OCC(=O)N2CC(=O)Nc3ccccc32)cc1OCC > 30 µM
CC(C)=CCc1cc([C@@H]2CC(=O)c3ccc(O)c(CC=C(C)C)c3O2)ccc1O > 30 µM
CCn1nc(NC(=O)Cc2ccc(OC)cc2)c2cc3cc(C)ccc3nc21 > 30 µM
NNc1nccc(Nc2ccccc2C(=O)O)n1 > 30 µM
CC(C)(C)c1ccc(OCC(=O)NCCN2CCCC2)cc1 > 30 µM
Nc1nonc1-n1nnc(C(=O)N/N=C/c2ccc(Cl)cc2Cl)c1CN1CCCC1 > 30 µM
COc1ccc(C2C3=C(CC(C)(C)CC3=O)Nc3c2c(=O)[nH]c2nc(C)nn32)cc1 (stereo not drawn) > 30 µM
CCOC(=O)c1ccc(NC(=O)CN(C)S(=O)(=O)c2ccc(Br)s2)cc1 > 30 µM
Nc1nc(NCCOCCO)nc(Nc2cccc(F)c2)c1[N+](=O)[O-] > 30 µM
CN(C)CCCNc1ccc(-c2cc(Nc3cccc(Cl)c3)ncn2)cn1 > 30 µM
O=[N+]([O-])c1cc(/C=N/O)ccc1SCc1ccccc1 > 30 µM
COc1cc(C2C(C(=O)c3cccs3)=C(O)C(=O)N2CCN2CCOCC2)ccc1OCCC(C)C (stereo not drawn) > 30 µM
Nc1ncnc2c1ncn2C1OC(CO)C(O)C1N (stereo not drawn) > 30 µM
CN1/C(=C/C=C(/C#N)C(N)=O)C(C)(C)c2ccccc21 > 30 µM
CCOC(=O)CNC(=O)CSc1ccc2nnc(-c3ccc(F)cc3)n2n1 > 30 µM
Cc1ccccc1C1=NC(C(F)(F)F)(C(F)(F)F)c2c(n(C)c(=O)n(C)c2=O)N1 > 30 µM
CN(Cc1c(C(=O)N/N=C/c2cccc(O)c2)nnn1-c1nonc1N)C1CCCCC1 > 30 µM
COc1cccc(Nc2ncc(C#N)c(N)n2)c1 > 10 µM
COc1cccc(CNC(=O)C2CCN(S(=O)(=O)c3ccc(-n4cnnn4)cc3)CC2)c1 > 30 µM
CCCn1nc(NC(=O)c2cccs2)c2cc3cc(OC)ccc3nc21 > 30 µM
CCCN(CCC)Cc1c(C(=O)N/N=C/c2ccoc2)nnn1-c1nonc1N > 30 µM
CCCOC(=O)c1ccc(O)cc1 > 30 µM
O=C(NNC(=O)C1CC1)c1cc2cc3ccccc3nc2s1 > 30 µM
Cc1ccc(-c2oc3ccccc3c(=O)c2O)cc1 > 30 µM
CCOC(=O)c1cnc2ccc(OC)cc2c1Nc1ccc2c(c1)OCCO2 > 30 µM
CC1(C)CC(=O)C=C(Nc2cccc(O)c2)C1 > 30 µM
Cc1nn(CC(=O)NCCCN2CCCCC2)c(=O)c2cc(-c3ccccc3)nn12 > 30 µM
COC(=O)C(C)Sc1ccc2nnc(-c3ccc(F)cc3)n2n1 (stereo not drawn) > 30 µM
CCC(NC(=S)NC1CCCCC1)c1ccccc1 (stereo not drawn) > 30 µM
Oc1ccccc1/C=N/Nc1nn[nH]n1 > 30 µM
O=C(Nc1cccc(Cl)c1)c1ccc(NCCCN2CCOCC2)c([N+](=O)[O-])c1 > 30 µM
O=C(Nc1cccc2c1C(=O)NC2=O)c1ccccc1[N+](=O)[O-] > 30 µM
CC(O)c1cccc(NC2=CC(=O)CC(C)(C)C2)c1 (stereo not drawn) > 30 µM
Cc1cccc(NC(=O)C(C)n2cc([N+](=O)[O-])cn2)n1 (stereo not drawn) > 30 µM
COc1cc(NC(=O)COC(=O)CCc2cc(OC)c(OC)c(OC)c2)cc(OC)c1 > 30 µM
CCOc1ccccc1CNC(=O)CCn1ccc2cc(S(=O)(=O)N3CCCCC3)ccc21 > 30 µM
Fc1ccc(-c2nnc(SCc3cccnc3)o2)cc1 > 30 µM
CN(Cc1ccccc1)Cc1nc2c([nH]1)c(=O)n(C)c(=O)n2C > 30 µM
C=CCNC(=O)c1onc(CSc2cccc(OC)c2)c1C(=O)NCC=C > 30 µM
O=S(=O)(c1ccc(F)cc1)c1nc(-c2ccco2)oc1Nc1ccccc1 > 30 µM
CC(C)N(C(=O)Cc1ccccc1[N+](=O)[O-])C(C)C > 30 µM
CCOC(=O)CSc1ccc2nnc(-c3ccccc3)n2n1 > 30 µM
Nc1nc(Nc2cccc(F)c2)nc(N2CCOCC2)c1[N+](=O)[O-] > 30 µM
CCc1nn(CC(=O)NCCCc2ccccc2)c(=O)c2cc3c(OC)cccc3n12 > 30 µM
O=C(Nc1ccccc1)Nc1ccncc1 > 30 µM
S=C1Nc2cc(Cl)ccc2Sc2ccccc21 > 30 µM
COc1ccc(C2CC(=O)C3=C(C2)Nc2ncnn2C3c2ccccc2C)cc1 (stereo not drawn) > 30 µM
CCC(=O)c1c(CC)c2n3c1CC[C@H]3CCC2 > 30 µM
CC(C)=CCc1c(O)cc(O)c2c(=O)c3c(CC=C(C)C)c(O)ccc3oc12 > 30 µM
O=c1cc(-c2ccccc2Cl)oc2c(Br)ccc(O)c12 > 30 µM
COc1ccc(-c2nn(-c3ccccc3)cc2/C=N/NC(=O)c2ccc(Br)o2)cc1 > 30 µM
Nc1c(C(=O)c2ccccc2)sc(Nc2ccccc2)c1S(=O)(=O)c1ccccc1 > 30 µM
Cc1ccc(C(=O)Nc2ccc(S(=O)(=O)NCc3ccco3)cc2)cc1 > 30 µM
Nc1nc(NCCOCCO)nc(NC2CCCCC2)c1[N+](=O)[O-] > 30 µM
CCN1CCCC1CNC(=O)c1ccc2c(c1)NC(=O)/C(=C\c1ccc(OC)c(OC)c1)S2 (stereo not drawn) > 30 µM
Cc1[nH]nc2c1C(c1cccs1)C1=C(CC(C)(C)CC1=O)N2 (stereo not drawn) > 30 µM
COc1ccccc1Oc1coc2c(CN(C)C)c(O)ccc2c1=O > 30 µM
CCOc1ccccc1/C=N/NC(=O)c1nnn(-c2nonc2N)c1CN1CCC(C)CC1 > 30 µM

Four entries from above, ordered by molar mass, ascending:
EC50, inactive:
O=[N+]([O-])c1cc(/C=N/O)ccc1SCc1ccccc1 > 30 µM
Cc1ccc(C(=O)Nc2ccc(S(=O)(=O)NCc3ccco3)cc2)cc1 > 30 µM
CCOc1ccccc1/C=N/NC(=O)c1nnn(-c2nonc2N)c1CN1CCC(C)CC1 > 30 µM
COc1ccc(-c2nn(-c3ccccc3)cc2/C=N/NC(=O)c2ccc(Br)o2)cc1 > 30 µM
